Measured values: article PMC7862700
The list shows a part of the results. The source does not settle which construct or isoform was used.

biological target: T1, ELF2 (UniProt Q15723); assay: DAPPL (digital affinity profiling via proximity ligation, sequencing); conditions: 10 mM Tris-HCl pH 7.5, 50 mM NaCl, 1 mM DTT, 4% glycerol, room temperature, 30 min; GST-TFs on glutathione beads, 16-mer random dsDNA library, 0.1% …; high values mean tight binding; double strand, one strand shown; scale: fold enrichment (6-mer frequency, TF over GST control)
T1 sequence: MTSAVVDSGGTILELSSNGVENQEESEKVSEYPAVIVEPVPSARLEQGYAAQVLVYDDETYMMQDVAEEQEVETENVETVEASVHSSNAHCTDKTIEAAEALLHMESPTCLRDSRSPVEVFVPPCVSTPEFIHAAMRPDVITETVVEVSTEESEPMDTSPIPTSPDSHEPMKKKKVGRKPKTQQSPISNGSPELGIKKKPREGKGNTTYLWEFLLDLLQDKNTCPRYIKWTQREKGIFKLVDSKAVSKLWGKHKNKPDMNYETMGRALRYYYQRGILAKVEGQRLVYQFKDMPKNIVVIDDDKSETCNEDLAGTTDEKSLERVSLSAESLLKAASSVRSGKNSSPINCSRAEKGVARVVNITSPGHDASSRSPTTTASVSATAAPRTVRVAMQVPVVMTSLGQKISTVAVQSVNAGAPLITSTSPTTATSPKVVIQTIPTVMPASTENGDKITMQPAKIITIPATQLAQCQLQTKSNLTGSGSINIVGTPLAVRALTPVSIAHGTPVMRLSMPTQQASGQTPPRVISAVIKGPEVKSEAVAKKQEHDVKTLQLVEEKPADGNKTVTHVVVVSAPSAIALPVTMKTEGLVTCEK

| Sequence | binding signal |
| --- | --- |
| ATAAAT | 1.2 |
| ACACGA | 1.04 |
| AAATGA | 1.34 |
| CTCTTC | 2.1 |
| ATGTCT | 1.21 |
| CCCTAA | 1.16 |
| TATAAC | 1.23 |
| TATCTC | 1.2 |
| TGTAGC | 1.12 |
| TTATCA | 1.08 |
| CCTATG | 1.24 |
| TTTGGC | 1.2 |
| TATTGG | 1.14 |
| ATAATT | 1.37 |
| ACAAGC | 1.07 |
| ATGCTT | 1.27 |
| CCCGTT | 1.13 |
| ACGATC | 0.984 |
| TACCAC | 1.2 |
| TAAAAT | 1.19 |

| Sequence | binding signal |
| --- | --- |
| TACTCT | 1.31 |
| AAAACA | 1.33 |
| TTAGAA | 1.04 |
| ATGACT | 1.35 |
| CCGTAC | 1.37 |
| AAATTC | 1.35 |
| GTTTAA | 1.13 |
| CGTCTC | 1.41 |
| ACTTTT | 1.31 |
| ACCTAC | 1.16 |
| TGAATT | 1.16 |
| CGACCC | 1.32 |
| AGACCT | 0.937 |
| TTGCTA | 1.21 |
| TTAAAC | 1.2 |
| GAACCC | 1.24 |
| TGCTTT | 1.08 |
| AACGTT | 1.06 |
| TAGTTT | 1.22 |

Part of the list above, bar-delimited:
Sequence | binding signal
TTAGAA | 1.04
ATGACT | 1.35
